Values from PubChem BioAssay AID1224828 (NIAID, 2016)

Test: 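Knock-downs that increase or decrease LPS-induced p65 nuclear translocation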 (primary screen)
Cell system: mouse RAW264.7 G9 macrophage reporter cells (GFP-p65, Tnf promoter-mCherry)
Reagent: siRNA pool against mouse genes, 100 nM
Duration: 2 days siRNA transfection, then 40 min LPS before fixation
Challenge: LPS (Salmonella minnesota R595) at 10 ng/ml
Measurement: 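Microscopy ratio of nuclear to perinuclear-ring GFP-p65 signal, scaled to the plate median; gene score is the average of two replicate robust z-scores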
Direction: p65 translocation robust z-score: higher = more nuclear NF-kappaB p65 after LPS than the plate median; nuclear/cytoplasmic p65 ratio: higher = more nuclear NF-kappaB p65
Call rule: 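Called active when z exceeds 3.3 or falls under -1.56 (median of Tlr4 controls), giving activity score of at least 50; no calls for control wells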
Calls: active = hit (p65 shift raised or lowered); inactive = no clear change
In all, the deposit lists about 17,000 reagents; below is a part drawn at random. Over the whole deposit, 762 (4.5%) were called active. 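Active calls include both raised and lowered p65 entry, mostly lowered; wells with fewer than 50 cells lack a z-score.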 Raw values vary from plate to plate and are shown uncorrected. Unmarked entries are inactive.

gene knocked down | p65 translocation robust z-score | nuclear/cytoplasmic p65 ratio, rep 1 | nuclear/cytoplasmic p65 ratio, rep 2 | low cell count flag
Memo1 (mediator of cell motility 1) | -1.41 | 1.31 | 1.29 | enough cells to score
Heatr1 (HEAT repeat containing 1) | -0.07 | 1.54 | 1.87 | enough cells to score
Cryaa (crystallin, alpha A) | – | 1.33 | 1.12 | fewer than 50 cells per well; well left out of scoring
Trpc6 | -0.57 | 1.45 | 1.45 | enough cells to score
Manf (mesencephalic astrocyte-derived neurotrophic factor) | -0.04 | 1.64 | 1.58 | enough cells to score
Ext1 (exostosin glycosyltransferase 1) | 2.94 | 1.96 | 1.65 | enough cells to score
Vmn1r185 (vomeronasal 1 receptor 185) | – | 1.41 | 1.24 | fewer than 50 cells per well; well left out of scoring
Dsc2 (desmocollin 2) | -0.74 | 1.53 | 1.27 | enough cells to score
Or52a33 (olfactory receptor family 52 subfamily A member 33) | 1.3 | 1.62 | 1.23 | enough cells to score
Zswim3 (zinc finger SWIM-type containing 3) | 1.04 | 1.6 | 1.37 | enough cells to score
Ranbp2 (RAN binding protein 2) | -0.94 | 1.45 | 1.32 | enough cells to score
Fbxw16 (F-box and WD-40 domain protein 16) | – | 1.21 | 1.64 | fewer than 50 cells per well; well left out of scoring
Cacna1d (calcium channel, voltage-dependent, L type, alpha 1D subunit) | -0.37 | 1.55 | 1.57 | enough cells to score
Enam (enamelin) | -0.01 | 1.5 | 1.33 | enough cells to score
Sf3b2 (splicing factor 3b, subunit 2) | – | 1.1 | 1.02 | fewer than 50 cells per well; well left out of scoring
Acoxl (acyl-Coenzyme A oxidase-like) | 0.19 | 1.36 | 1.5 | enough cells to score
Pate6 (prostate and testis expressed 6) | -1.71 (active) | 1.32 | 1.31 | enough cells to score
Zg16 (zymogen granule protein 16) | 0.5 | 1.51 | 1.43 | enough cells to score
Ca8 (carbonic anhydrase 8) | -0.74 | 1.44 | 1.71 | enough cells to score
Txndc15 (thioredoxin domain containing 15) | -2.19 (active) | 1.06 | 1.07 | enough cells to score
Kcmf1 (potassium channel modulatory factor 1) | -1.18 | 1.35 | 1.3 | enough cells to score
Vps72 (vacuolar protein sorting 72) | -0.08 | 1.6 | 1.42 | enough cells to score
Crispld2 (cysteine-rich secretory protein LCCL domain containing 2) | 1.01 | 1.51 | 1.41 | enough cells to score
Fstl4 (follistatin-like 4) | -2.31 (active) | 1.19 | 1.26 | enough cells to score

Targets listed so far whose gene name begins with M or m:
gene knocked down | p65 translocation robust z-score | nuclear/cytoplasmic p65 ratio, rep 1 | nuclear/cytoplasmic p65 ratio, rep 2 | low cell count flag
Memo1 (mediator of cell motility 1) | -1.41 | 1.31 | 1.29 | enough cells to score
Manf (mesencephalic astrocyte-derived neurotrophic factor) | -0.04 | 1.64 | 1.58 | enough cells to score
